This note sets out measurements from the supplement of paper PMC10849652.

The chains behind the UniProt entries cited, without tags or fusion partners. Where a name states a change or a piece, a line headed by the entry shows the natural chain unless it says otherwise.
UniProt Q8TF68: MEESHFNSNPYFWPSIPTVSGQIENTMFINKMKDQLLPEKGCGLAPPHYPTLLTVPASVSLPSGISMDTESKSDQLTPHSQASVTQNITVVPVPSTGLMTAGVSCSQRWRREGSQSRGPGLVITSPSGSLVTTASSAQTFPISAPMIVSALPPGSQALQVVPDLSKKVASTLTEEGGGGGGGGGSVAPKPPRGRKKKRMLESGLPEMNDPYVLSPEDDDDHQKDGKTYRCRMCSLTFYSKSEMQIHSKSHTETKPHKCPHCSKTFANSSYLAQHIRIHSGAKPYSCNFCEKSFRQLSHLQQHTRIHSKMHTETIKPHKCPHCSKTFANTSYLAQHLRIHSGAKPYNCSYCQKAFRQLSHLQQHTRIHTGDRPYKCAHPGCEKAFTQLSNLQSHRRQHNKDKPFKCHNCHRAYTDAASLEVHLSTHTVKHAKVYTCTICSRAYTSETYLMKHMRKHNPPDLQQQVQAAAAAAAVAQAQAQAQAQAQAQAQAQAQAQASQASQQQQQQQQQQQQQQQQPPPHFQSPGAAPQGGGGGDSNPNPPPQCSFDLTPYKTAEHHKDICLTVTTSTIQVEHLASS

The list shows a part of the results.

The target in the experiment is ZNF384 (UniProt Q8TF68). In words: log2 fold change, soluble protein after heating vs DMSO (PISA); higher = thermal stabilisation; K562 cells, 10 uM, 30 min; active = over 0.2 and 3.5 SD of the protein, either way, in both replicates (recomputed). The method in brief: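 K562 cells at 2×10^6 cells/mL were exposed to 10 μM compound for 30 min, then aliquots were heated for 3 min across 48°C-58°C, pooled, and extracted in PBS containing 0.5% NP-40 at 4°C. The supernatant after 21,000xg for 90 min was taken as soluble protein and measured by TMTpro 16plex LC-MS/MS with channel sums equalised. Thermal stability is reported relative to control samples, with values from duplicates. Fold changes are given on a log2 scale.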
As to `NC(=O)c1cnc(N[C@@H]2CCCC[C@@H]2N)nc1Nc1cccc(-n2nccn2)c1`, the log2 fold change was inactive: 0.017.

Consider `C/C(=N\NC(=O)c1cccc(S(=O)(=O)N2CCOCC2)c1)c1cc(Cl)ccc1O`, for which the log2 fold change is inactive: -0.163.

`COC(=O)N[C@@H](C)CNc1nccc(-c2cn(C(C)C)nc2-c2cc(Cl)cc(NS(C)(=O)=O)c2F)n1` [encorafenib]: the log2 fold change was inactive: 0.011.

Take `CNCc1ccc(-c2[nH]c3cc(F)cc4c3c2CCNC4=O)cc1` [rucaparib]: the log2 fold change was inactive: 0.164.

In the case of `c1cc(OCCN2CCCCC2)cc(-c2n[nH]c3ccc(-c4nnc[nH]4)cc23)c1`, the log2 fold change is inactive: -0.03.

Regarding `O=C(CCCCCCNC(=O)c1cnc(N(c2ccccc2)c2ccccc2Cl)nc1)NO` [citarinostat], the log2 fold change is inactive: -0.258.

For the compound `CCCc1cc(C)[nH]c(=O)c1CNC(=O)c1cc(-c2ccnc(N3CCN(C)CC3)c2)cc2c1cnn2C(C)C`, the log2 fold change was inactive: 0.172.

As for `C[C@@H](N)c1ccc(C(=O)Nc2ccnc3[nH]ccc23)cc1`, the log2 fold change is inactive: 0.308.

Consider `O=C1NC(=NCc2cccs2)S/C1=C\c1ccc2ncccc2c1`, for which the log2 fold change was inactive: -0.067.

`FC(F)(F)c1ccc(/C=C/c2nc(COc3ccc(CCCCn4ccnn4)cc3)co2)cc1` [mubritinib]: the log2 fold change is inactive: -0.21.

As for `CC(=O)c1cnc2ccc(-c3cc(Cl)c(O)c(Cl)c3)nc2c1N[C@H]1CC[C@H](CN(C)C)CC1`, the log2 fold change is inactive: 0.045.

Take `Cc1ccc(NC(=O)c2ccc(CN3CC[C@H](N(C)C)C3)c(C(F)(F)F)c2)cc1Nc1nccc(-c2cncnc2)n1` [bafetinib]: the log2 fold change is inactive: -0.382.

Consider `CC[C@@H]1C(=O)N(C)c2cnc(Nc3ccc(C(=O)NC4CCN(C)CC4)cc3OC)nc2N1C1CCCC1`, for which the log2 fold change was inactive: 0.289.

For the compound `O=C1c2ccccc2-c2n[nH]c3cccc1c23`, the log2 fold change was inactive: -0.009.

As for `COc1cc(C(=O)O)ccc1NC(=O)[C@@H]1N[C@@H](CC(C)(C)C)[C@](C#N)(c2ccc(Cl)cc2F)[C@H]1c1cccc(Cl)c1F` [idasanutlin], the log2 fold change is inactive: 0.14.

As for `CO[C@H]1C[C@@H]2CC[C@@H](C)[C@@](O)(O2)C(=O)C(=O)N2CCCC[C@H]2C(=O)O[C@H]([C@H](C)C[C@@H]2CC[C@H](n3cnnn3)[C@H](OC)C2)CC(=O)[C@H](C)/C=C(\C)[C@@H](O)[C@@H](OC)C(=O)[C@H](C)C[C@H](C)/C=C/C=C/C=C/1C` [zotarolimus], the log2 fold change is inactive: -0.181.

As to `O=C1NC(=O)/C(=C\c2ccc3nccnc3c2)S1`, the log2 fold change is inactive: -0.022.

As for `NC1(c2ccc(-c3nc4ccn5c(=O)[nH]nc5c4cc3-c3ccccc3)cc2)CCC1`, the log2 fold change is inactive: 0.246.

In the case of `Cn1cc(-c2ccc3c(c2)CCN3C(=O)Cc2cccc(C(F)(F)F)c2)c2c(N)ncnc21`, the log2 fold change is inactive: -0.034.
